Measured values: PubChem BioAssay AID651768 (National Center for Advancing Translational Sciences (NCATS), 2012)
Several values for one entry are separate records, joined by “and”; a condition that tells them apart may be missing. Identical values can stand only once. Screen size: about 360,000 compounds; about 1,700 (0.47%) were called active. This list was built around the results that the source calls inconclusive (neither active nor inactive); the mix of calls is not that of the screen. Calls come from the whole dose curve; as a rule, active = well fitted inhibition curve with a large enough effect; inconclusive = small, poorly fitted or top-dose-only effect; inactive = no such curve, though single readings can be large or run the other way. Where the call is inconclusive, the potency comes from a doubtful curve fit.

Protein sequences, listed by entry. Tags and fused reporters are not part of them.
UniProt Q14191, whole entry, looked up: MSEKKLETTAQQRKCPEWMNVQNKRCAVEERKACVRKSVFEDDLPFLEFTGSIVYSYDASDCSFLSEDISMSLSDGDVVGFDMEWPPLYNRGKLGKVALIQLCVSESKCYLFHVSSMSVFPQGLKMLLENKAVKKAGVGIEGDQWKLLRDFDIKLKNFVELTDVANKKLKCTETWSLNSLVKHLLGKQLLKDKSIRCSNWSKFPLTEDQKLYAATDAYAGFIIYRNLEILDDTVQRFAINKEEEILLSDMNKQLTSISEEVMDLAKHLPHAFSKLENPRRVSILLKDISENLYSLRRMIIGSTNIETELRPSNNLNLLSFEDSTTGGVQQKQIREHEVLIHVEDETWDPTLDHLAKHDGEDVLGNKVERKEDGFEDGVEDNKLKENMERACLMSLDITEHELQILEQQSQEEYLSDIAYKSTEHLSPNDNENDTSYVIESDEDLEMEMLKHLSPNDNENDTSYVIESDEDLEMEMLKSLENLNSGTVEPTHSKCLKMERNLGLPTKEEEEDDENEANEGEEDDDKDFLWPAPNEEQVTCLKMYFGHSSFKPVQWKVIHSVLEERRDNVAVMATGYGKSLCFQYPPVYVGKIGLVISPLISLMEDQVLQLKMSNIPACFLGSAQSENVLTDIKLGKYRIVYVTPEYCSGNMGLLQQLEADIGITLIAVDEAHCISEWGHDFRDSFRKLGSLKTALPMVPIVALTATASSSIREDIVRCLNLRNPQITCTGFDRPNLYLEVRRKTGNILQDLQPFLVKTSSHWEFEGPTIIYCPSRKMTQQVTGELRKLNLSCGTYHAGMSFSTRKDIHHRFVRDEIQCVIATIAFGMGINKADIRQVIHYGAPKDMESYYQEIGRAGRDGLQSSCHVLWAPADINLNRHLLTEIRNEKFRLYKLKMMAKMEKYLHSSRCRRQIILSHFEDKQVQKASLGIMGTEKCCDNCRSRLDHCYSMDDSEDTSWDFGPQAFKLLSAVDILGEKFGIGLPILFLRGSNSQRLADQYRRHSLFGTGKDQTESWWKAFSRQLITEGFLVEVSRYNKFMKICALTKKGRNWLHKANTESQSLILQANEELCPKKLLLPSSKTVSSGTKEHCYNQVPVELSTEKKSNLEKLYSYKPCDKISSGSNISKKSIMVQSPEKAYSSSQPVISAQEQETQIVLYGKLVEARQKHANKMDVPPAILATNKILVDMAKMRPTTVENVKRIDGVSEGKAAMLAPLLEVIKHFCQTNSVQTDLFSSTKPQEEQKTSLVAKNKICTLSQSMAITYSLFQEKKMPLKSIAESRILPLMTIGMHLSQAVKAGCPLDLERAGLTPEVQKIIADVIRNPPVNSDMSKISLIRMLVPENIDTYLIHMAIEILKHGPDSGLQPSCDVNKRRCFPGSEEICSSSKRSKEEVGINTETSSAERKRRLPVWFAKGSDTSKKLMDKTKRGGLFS

target: Bifunctional 3'-5' exonuclease/ATP-dependent helicase WRN (Homo sapiens) (UniProt Q14191); experiment: qHTS for Inhibitors of WRN Helicase; settings: WRN helicase unwinding, fluorescent forked duplex, kinetic; activity change, negative = inhibition: at 114 µM (top of the series) unless noted; note: nearly all actives have a fitted effect of over 55% in size
Source text: Inhibition of DNA repair is proposed as a strategy for combating cancer. Synthetic lethality is an approach that exploits preexisting DNA repair deficiencies in certain tumors to develop inhibitors of DNA repair pathways that compensate for the tumor-associated DNA repair deficiency. Because helicases play critical roles in the DNA damage response and in DNA repair, particularly in actively dividing and replicating cells, characterization of synthetic lethal relationships of DNA helicases may be of value in developing improved anticancer treatment strategies; moreover, small molecules that specifically target a given DNA helicase may be useful for understanding its role in cellular nucleic acid metabolism. The goal of this project is to identify small molecule, non-covalent chemical inhibitors of the Werner syndrome (WS) helicase (WRN), which plays an important role in cell proliferation, the replication stress response, and DNA repair. […] The WRN gene product that is defective in the chromosomal instability disorder has DNA helicase and exonuclease activities and interacts with a number of nuclear proteins to maintain genomic stability. We will employ an optimized high-throughput screening assay that utilizes a fluorescence intensity modulation scheme with a fluorophore and quencher positioned near one another within a duplex deoxyoligonucleotide that contains a single forked structure. After a high-throughput screen of the ~350,000-member Molecular Libraries Small Molecule Repository (MLSMR) collection, followed by data analysis and hit selection, a panel of confirmatory, as well as secondary and ternary, assays will be employed to identify high-confidence WRN inhibitors. Structure-activity relationships will be investigated for the top candidate inhibitor series through medchem expansion. These are the results of the primary screening campaign against the MLSMR. NIH Chemical Genomics Center [NCGC] NIH Molecular Libraries Probe Centers Network [MLPCN] MLPCN Grant: MH096530 Assay Submitter (PI): Robert Brosh, National Institute of Aging
Three muL of reagents (buffer in columns 3 and 4 as negative controls; WRN at 20 nM final concentration in columns 1 and 2 as positive controls; columns 5-48 as test reactions) will be dispensed into a 1536-well Greiner black plate via solenoid-valve based nanoliter dispensers. Compounds (23 nL each in columns 5-48) and control (23 nL each in column 2 as dose-response) will be transferred via a Kalypsys pintool equipped with a 1536-pin array. Plates will be incubated for 15 min at room temperature, and then 1 µL of substrate (100 nM forked duplex oligonucleotide and 2 mM ATP final concentrations) will be added to start reaction, and plate will be transferred into a ViewLux high-throughput CCD imager where reaction progress is measured in kinetic mode using standard red-fluorescence optics (excitation filter 525 nm, emission filter 598 nm).
% is set by controls: 0 for no effect and ±100 for the full control effect; potency is the fitted concentration of half-maximal effect.

Compound	Potency	activity change, negative = inhibition
O=C1CCCC(O)=C1N=Nc1c(Cl)cc(C(F)(F)F)cc1Cl	active: 79.4 µM	
CN(C)C1CN(Cc2cn(Cc3ccc(C(F)(F)F)cc3)nn2)S(=O)(=O)C1 (stereo not drawn)		inactive: 4.56%
N#C/C(=C/c1ccc(N2CCCCC2)o1)C(=O)Nc1ccc2ccccc2c1	inconclusive: 44.7 µM [inhibitor, partial curve]	
CCCCN(C(=O)c1cccc(-n2cccc2)c1)c1c(N)n(CCC)c(=O)[nH]c1=O	active: 56.2 µM	
COc1ccccc1N1CC(C(=O)Nc2ccc(S(=O)(=O)N3CCCC3)cc2)CC1=O (stereo not drawn)		inactive: 1.79%
CCc1cccc2c(C(=O)COC(=O)c3cccc(S(=O)(=O)N(C)C4CCCCC4)c3)c[nH]c12		inactive: -7.19%
O=C(O)c1cccc(NS(=O)(=O)c2cc(S(=O)(=O)c3ccc(Cl)cc3)ccc2Cl)c1	inconclusive: 56.2 µM [inhibitor, partial curve]	
N#C/C(=C\c1cccs1)C(=O)c1ccccc1Cl	inconclusive: 39.8 µM [inhibitor, single point]	
O=[N+]([O-])c1cc(Br)c(O)c(/C=N/Nc2nnnn2-c2cccc3ccccc23)c1	inconclusive: 50.1 µM [inhibitor, partial curve]	
NNC(=O)c1cc(NS(=O)(=O)c2cccs2)cc(NS(=O)(=O)c2cccs2)c1		inactive: -3.17% [at 11.6 µM]
O=C(Nc1ccccc1C(=O)O)c1ccc(NC(=O)c2ccc(Br)o2)cc1		inactive: -27.1% [at 57.1 µM]
O=c1c([N+](=O)[O-])c(O)c2ccccc2n1Cc1ccccc1		inactive: -11%
N#CC1C(=O)c2ccccc2C1c1ccccc1 (stereo not drawn)	active: 12.6 µM	
C/C=C/C=C\C(=O)Nc1cccc(C2=NOC3(C2)C[C@@H](C(N)=O)N(C(=O)/C(C)=C/C)C3)c1 (stereo partly drawn)	inconclusive: 50.1 µM [inhibitor, partial curve]	
Cc1cccc[n+]1C1C(c2ccccc2)C(C#N)=C(C(=C=[N-])C#N)NC1(O)C1CC1 (stereo not drawn)	inconclusive: 50.1 µM [inhibitor, partial curve]	
CC(C)c1ccc2c(c1)C1Cc3ccccc3C1N2 (stereo not drawn)	inconclusive: 89.1 µM [inhibitor, partial curve, poor fit]	
Cn1c(=O)c([N+](=O)[O-])c(NCc2ccccc2Cl)c2ccccc21	inconclusive: 7.08 µM [inhibitor, full curve, poor fit]	
COc1ccc(N2CCN(c3nc4ccccc4n3CC(=O)c3ccccc3)CC2)cc1		inactive: 1.35%
Cc1ccc(C2CC(=O)Oc3cc(O)ccc32)cc1 (stereo not drawn)		inactive: 13.7%
NC(=O)COC(=O)c1ccc(Cl)c(S(=O)(=O)N(Cc2ccccc2)c2ccc(Cl)cc2)c1		inactive: -21.1% [at 57.1 µM]
Cc1ccc(S(=O)(=O)N2[C@@H](c3ccc(C(C)(C)C)cc3)C(C(=O)O)=CC[C@H]2c2ccc(C(C)C)cc2)cc1	active: 56.2 µM	
C[C@H](NC(=O)C1CCN(S(=O)(=O)c2ccccc2)CC1)C(=O)NCc1ccc(Cl)c(Cl)c1		inactive: -11.5%
CCc1nc2sc3ccccc3c(=O)c2c(=O)n1Cc1ccco1	active: 56.2 µM	

Compound	Potency	activity change, negative = inhibition
COc1cc(/C=C/C(=O)c2ccc(NS(=O)(=O)c3ccc(C)cc3)cc2)cc(OC)c1O	inconclusive: 50.1 µM [inhibitor, partial curve]	
COC(=O)/C=C/C(=O)Nc1ccc(O)c(Cl)c1		inactive: -23.7% [at 57.1 µM]
COc1ccc(NC(=O)c2c3c(nc4ccccc24)CCC3)cc1S(=O)(=O)N1CCOCC1	inconclusive: 10 µM [inhibitor, full curve, poor fit]	
O=C(CSc1nnc(-c2ccccc2Br)o1)N1CCOCC1	inconclusive: 89.1 µM [inhibitor, single point]	
Cn1cc(C(c2ccccc2OCC(=O)O)c2cn(C)c3ccccc23)c2ccccc21	active: 79.4 µM	
C#CCOCCOCCOCCNc1nc(N2CCN(C(=O)CCCCCCCCCCNC(=O)[C@H](CCCCN)n3cc(C[C@@H](C)CC)nn3)CC2)nc(N2CCN(C(=O)CCCCCCCCCCNC(=O)[C@H](CCCCN)n3cc(C[C@@H](C)CC)nn3)CC2)n1	active: 50.1 µM	
O=C1[C@H]2[C@@H](C3CC3)N3C(=O)CN(Cc4ccccn4)C(=O)[C@@]3(Cc3ccccc3)[C@H]2C(=O)N1c1ccccc1	inconclusive: 39.8 µM [inhibitor, single point]	
COc1cc2ccccc2cc1C(=O)Nc1nnc(-c2ccncc2)o1	inconclusive: 44.7 µM [inhibitor, partial curve]	
COc1ccc(C2=CC3=C(Br)C(=O)C(C)(OC(=O)c4ccco4)C(=O)C3=CO2)cc1 (stereo not drawn)	active: 44.7 µM	
Cc1ccc2nc(-c3ccc(C#N)cc3)c(Cc3ccccc3C(F)(F)F)n2c1		inactive: -11.3%
CC1=NN(c2ccc(C(=O)O)cc2)C(=O)/C1=C\c1ccc(OC(=O)c2cccs2)cc1	active: 5.32 µM	
CC(Oc1ccc(Br)cc1)c1nc2c3ccccc3nc(=S)n2[nH]1 (stereo not drawn)	inconclusive: 39.8 µM [inhibitor, single point]	
COC(=O)c1c(N2C(=O)CC(Sc3ccccc3C(=O)O)C2=O)sc(C)c1C (stereo not drawn)	inconclusive: 79.4 µM [inhibitor, single point]	
CC(=O)Nc1ccc2c(c1Br)Cc1ccccc1-2	inconclusive: 20 µM [inhibitor, full curve, poor fit]	
Cc1ccc(S(=O)(=O)N2CCOCC2)cc1NC(=O)COC(=O)C1COc2ccccc2O1 (stereo not drawn)		inactive: -7.59%
Cc1cc(NS(=O)(=O)c2ccc(NC(=O)Cc3cccs3)cc2)no1		inactive: -6.37%
CCCCn1c(N)c(-c2nc3ccccc3o2)c2c([N+](=O)[O-])nn(C)c(=O)c21	inconclusive: 13.4 µM [inhibitor, partial curve]	
O=C(CCSCCC(=O)NN=Cc1ccccc1O)NN=Cc1ccccc1O	inconclusive: 79.4 µM [inhibitor, single point]	
CC(C)(C)C1=Nn2c(nnc2-c2n[nH]c3c2CCC3)SC1		inactive: -3.26%
CC(C)S(=O)(=O)C1=NSC2=NC(=O)/C(=C\c3ccc(-c4cccc(C(=O)O)c4)o3)C(=N)N21	inconclusive: 50.1 µM [inhibitor, partial curve]	
COc1cc(/C=N/NC(=O)c2ccc3nc[nH]c3c2)cc(OC)c1OC(C)=O		inactive: 21.4%
NS(=O)(=O)c1ccc(OC(=O)CNC(=O)OCc2ccccc2)cc1	inconclusive: 20 µM [inhibitor, single point]	
CC1CC(C)(C)CC2(C1)NC(=O)N(CC(=O)Nc1ccc(N3CCCCC3)cc1)C2=O (stereo not drawn)	inconclusive: 44.7 µM [inhibitor, partial curve]	

Compound	Potency	activity change, negative = inhibition
CCN(c1ccc(C)cc1C)S(=O)(=O)c1nnc(NC(=O)C(C)C)s1		inactive: -2.24%
CN1c2ccccc2C(O)=C(C(=S)Nc2ccc(F)c(Cl)c2)S1(=O)=O	inconclusive: 39.8 µM [inhibitor, full curve, poor fit]	
Clc1nssc1=Nc1nncs1		inactive: -9.42%
O=c1c2ccccc2[nH]c2ccc(O)cc12	active: 50.1 µM	
O=C(NC(=S)N1CCN(c2ccccc2)CC1)c1ccco1	inconclusive: 28.2 µM [inhibitor, full curve, poor fit]	
COC(=O)c1ccc(COc2ccccc2/C=C/C(=O)c2ccc(OCC(=O)O)cc2)cc1	inconclusive: 56.2 µM [inhibitor, partial curve]	
O=C(Nc1cc(S(=O)(=O)N2CCCCC2)ccc1O)c1ccccc1NS(=O)(=O)c1ccc(F)cc1	inconclusive: 25.1 µM [inhibitor, single point] and inconclusive: 3.16 µM [inhibitor, partial curve, poor fit]	
C=CCn1c(=NC(=O)c2ccc(S(=O)(=O)N3CCc4ccccc4C3)cc2)sc2cc(S(N)(=O)=O)ccc21		inactive: -0.381%
Cn1c(CSCc2ccccc2)nnc1SCC(=O)Nc1nccs1		inactive: -10.3%
CN(CC(=O)Nc1sccc1C#N)C1CCCCC1	inconclusive: 50.1 µM [inhibitor, partial curve]	
Cc1cc([N+](=O)[O-])c(C)cc1-c1ccc(/C=N/NC(=O)Cn2nnnc2N)o1	inconclusive: 39.8 µM [inhibitor, single point]	
Cc1csc(N=Cc2ccc([N+](=O)[O-])o2)n1	inconclusive: 50.1 µM [inhibitor, partial curve]	
C=C1C(=O)[C@]23C[C@H]1CCC2[C@]1(C)CCC[C@@](C)(C(=O)O)C1C[C@@H]3O (stereo partly drawn)	inconclusive: 56.2 µM [inhibitor, partial curve]	
Cc1nn2c(=S)[nH]nc2[nH]c1=O	inconclusive: 17.8 µM [inhibitor, full curve]	
Cc1ccccc1CS(=O)(=O)CCC(=O)NCCCN1CCN(c2ccccc2F)CC1		inactive: 1.42%
O=C(CSc1nc2scc(-c3ccco3)c2c(=O)n1-c1ccccc1)N1CCOCC1		inactive: -2.73%
O=C(Nc1ccccc1Cl)C(Cl)C(=O)c1ccccc1 (stereo not drawn)	inconclusive: 25.1 µM [inhibitor, single point]	
O=C(O)c1cccc2cccc(-c3c4ccc(=O)c(O)c-4oc4c(O)c(O)ccc34)c12	active: 3.55 µM	
COc1cc(/C=C2\Oc3cc(O)ccc3C2=O)ccc1O	inconclusive: 56.2 µM [inhibitor, partial curve]	
CCc1c(C)sc(NC(=O)c2ccoc2C)c1C(N)=O	inconclusive: 39.8 µM [inhibitor, single point]	
CCCCn1c(SCC(=O)Nc2sc3c(c2C(N)=O)CCC3)nnc1-c1ccccc1	inconclusive: 7.08 µM [inhibitor, full curve, poor fit]	
CC(=O)c1ccc(OCCCC(=O)Nc2cc(Cl)ccc2-n2cncn2)cc1	inconclusive: 89.1 µM [inhibitor, single point]	
